Where a chain is given by its changes, count along the chain named. These are yes or no findings as the source states them, for the method shown. Blank lines part the entries; values can stand above or below the binder they belong to.
Assays:
Experiment in all cases: condition: only reducing conditions (sample buffer with DTT); reducing SDS-PAGE with Western blot; same lysates as a4, boiled in sample buffer containing DTT (reducing conditions)
[1] = target: peroxiredoxin 3 (PRDX3), murine lung fibroblasts (mouse (endogenous in MLFs)) (UniProt P20108)
[2] = target: peroxiredoxin 3 (PRDX3), A549 cells (human (endogenous in A549)) (UniProt P30048)
[3] = target: peroxiredoxin 1 (PRDX1), murine lung fibroblasts (mouse (endogenous in MLFs)) (UniProt P35700)
[4] = target: peroxiredoxin 1 (PRDX1) (human (endogenous in HEK 293T and A549)) (UniProt Q06830)

Chains of the proteins cited; added tags and fusions are not shown.
UniProt Q06830: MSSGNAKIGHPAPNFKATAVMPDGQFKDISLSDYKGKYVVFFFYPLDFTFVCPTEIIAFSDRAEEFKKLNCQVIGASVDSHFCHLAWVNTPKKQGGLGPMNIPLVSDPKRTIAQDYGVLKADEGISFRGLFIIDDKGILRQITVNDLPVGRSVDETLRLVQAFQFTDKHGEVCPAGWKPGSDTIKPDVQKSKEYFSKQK

binding [1]: no binding
B1: peroxiredoxin 3 (PRDX3), murine lung fibroblasts (enzyme, UniProt P20108 63-257)
chain: TPAVTQHAPYFKGTAVVNGEFKELSLDDFKGKYLVLFFYPLDFTFVCPTEIVAFSDKANEFHDVNCEVVAVSVDSHFSHLAWINTPRKNGGLGHMNITLLSDITKQISRDYGVLLESAGIALRGLFIIDPNGVVKHLSVNDLPVGRSVEETLRLVKAFQFVETHGEVCPANWTPESPTIKPSPTASKEYFEKVHQ

binding [2]: no binding
B2: peroxiredoxin 3 (PRDX3), A549 cells (enzyme, UniProt P30048 62-256)
chain: APAVTQHAPYFKGTAVVNGEFKDLSLDDFKGKYLVLFFYPLDFTFVCPTEIVAFSDKANEFHDVNCEVVAVSVDSHFSHLAWINTPRKNGGLGHMNIALLSDLTKQISRDYGVLLEGSGLALRGLFIIDPNGVIKHLSVNDLPVGRSVEETLRLVKAFQYVETHGEVCPANWTPDSPTIKPSPAASKEYFQKVNQ

Second part, the binder before the results:

B3: peroxiredoxin 1 (PRDX1), murine lung fibroblasts (enzyme, UniProt P35700 1-199)
chain: MSSGNAKIGYPAPNFKATAVMPDGQFKDISLSEYKGKYVVFFFYPLDFTFVCPTEIIAFSDRADEFKKLNCQVIGASVDSHFCHLAWINTPKKQGGLGPMNIPLISDPKRTIAQDYGVLKADEGISFRGLFIIDDKGILRQITINDLPVGRSVDEIIRLVQAFQFTDKHGEVCPAGWKPGSDTIKPDVNKSKEYFSKQK
binding [3]: no binding

B4: peroxiredoxin 1 (PRDX1) (enzyme, UniProt Q06830 1-199)
chain: B3 chain with Y10H, E33D, D64E, I88V, I105V, I144V, I156T, I157L, N189Q
binding [4]: no binding
